PubChem BioAssay AID1259405 – NCATS | 2018
In all, the deposit lists about 50,000 reagents; this is a random part of them. About 4,000 of them (8%) were called active. 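Mouse siRNA library applied to hamster cells; one well for each siRNA.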 The numbers tell different reagents against one gene apart.

- Purpose: 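Silenced genes that increase secreted GFP made by CHO cells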 (primary screen)
- Cells: Chinese hamster CHO-K1 ovary cells with stable secreted eGFP expression
- Knock-down reagent: single siRNA against mouse genes, 0.8 pmol siRNA per well (2 µl of 400 nM stock)
- Timing: 3 days
- Measurement: 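Percent of the per-plate non-targeting control median for intracellular GFP per well by laser scanning cytometry and for cell viability by ATP luminescence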
- Scale: GFP, % of control: higher = more GFP per well, higher productivity; viability (ATP), % of control: higher = more viable cells (more ATP)
- Active means: 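Called active when intracellular GFP, relative to negative control, is at or above 120%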

gene	reagent	GFP, % of control	viability (ATP), % of control	call
Slc22a4	1	135	67.5	active
Slc22a4	2	100	77.7	inactive
Slc22a4	3	92.7	83.8	inactive
Nppa	1	80.5	72	inactive
Nppa	2	77.9	62.3	inactive
Nppa	3	36.8	46.9	inactive
Hipk2	1	107	108	inactive
Hipk2	2	73.8	62.3	inactive
Hipk2	3	71.3	65.6	inactive
Efr3a	1	94.1	90.7	inactive
Efr3a	2	94.1	56.3	inactive
Efr3a	3	91.9	107	inactive

The list goes on, starting with the last 5 of the part before.
gene	reagent	GFP, % of control	viability (ATP), % of control	call
Hipk2	2	73.8	62.3	inactive
Hipk2	3	71.3	65.6	inactive
Efr3a	1	94.1	90.7	inactive
Efr3a	2	94.1	56.3	inactive
Efr3a	3	91.9	107	inactive
Glp1r	1	27.3	32.4	inactive
Glp1r	2	66.7	79.2	inactive
Glp1r	3	53.1	73.2	inactive
Tagap	1	87.8	94.4	inactive
Tagap	2	128	81.5	active
Tagap	3	107	75.1	inactive
Hcrt	1	50.6	59.7	inactive
Hcrt	2	70.4	75.2	inactive
Hcrt	3	64.6	56.9	inactive
Adamts1	1	90	67.3	inactive
Adamts1	2	116	74	inactive
Adamts1	3	92.8	65.6	inactive
Coa4	1	84.9	84	inactive
Coa4	2	72.1	77.9	inactive
Coa4	3	156	127	active
Nfatc2	1	50.3	25.2	inactive
Nfatc2	2	65.3	81.8	inactive
Nfatc2	3	82.5	91.3	inactive
Btnl1	1	53.8	70.4	inactive
Btnl1	2	74.1	70.3	inactive
Btnl1	3	74.7	70.5	inactive
Tceal5	1	78.9	65.7	inactive
Tceal5	2	95	92.9	inactive
Tceal5	3	73.1	80.6	inactive
